Assay results reported in patent US20230346796A1 (priority 2010, published 2023).
Where two headings read alike, the source gives them in different places.

Tested on: patients undergoing a colonoscopy
Conditions: ITT Population

Row | SMILES | No. of Top-up Doses, mean (SD) (5.0/3.0) | No. of Top-up Doses, mean (SD) (7.0/2.0 mg) | No. of Top-up Doses, mean (SD) (8.0/3.0 mg) | No. of Top-up Doses, mean (SD) (2.5/1.0 mg)
1 | COC(=O)CC[C@@H]1N=C(c2ccccn2)c2cc(Br)ccc2-n2c(C)cnc21 [CNS 7056, 3-[(4S)-8-bromo-1-methyl-6-(2-pyridinyl)-4H-imidazo[1,2-a][1,4]benzodiazepin-4-yl] propionic methyl ester] | 1.98 (1.64) | 2.35 (1.97) | 1.43 (1.52) | 
2 | Cc1ncc2n1-c1ccc(Cl)cc1C(c1ccccc1F)=NC2 [Midazolam, reference compound] |  |  |  | 2.48 (1.77)
